Assay results reported in the supplement of paper PMC9233669.
This sample is rich in variants without activity.

How the values were obtained:
biotinyl-Ile-oxazolone = test: self-aminoacylation, catalytic enhancement (BIO) (fold over background); higher = more active; k-Seq, kA / k0A0; sequences stand for … in GGGAAUGGAUCCACAUCUACGAAUUC…UUCACUGCAGACUUGACGAAGCUG
Outline: (§1)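 Mutagenized RNA pools with a 21-nt variable region (0.43 μM) reacted with each biotinyl-aminoacyl-oxazolone at 2–1250 μM. Reactions ran in 50 μL HEPES/NaCl/KCl/MgCl2/CaCl2 buffer with 5% acetonitrile, pH 6.9–7.0, for 90 minutes at room temperature. Streptavidin-captured RNA was quantified by triplicate qPCR and Illumina sequencing, and per-sequence fraction reacted was fit to a pseudo-first-order model with 1000 bootstraps. Catalytic enhancement is median kA divided by the uncatalyzed rate, the low-activity peak of a bimodal Gaussian fit.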

biotinyl-Phe-oxazolone = test: self-aminoacylation, catalytic enhancement (BFO) (fold over background); higher = more active; k-Seq, kA / k0A0; sequences stand for … in GGGAAUGGAUCCACAUCUACGAAUUC…UUCACUGCAGACUUGACGAAGCUG
Outline: as §1

biotinyl-Met-oxazolone = test: self-aminoacylation, catalytic enhancement (BMO) (fold over background); higher = more active; k-Seq, kA / k0A0; sequences stand for … in GGGAAUGGAUCCACAUCUACGAAUUC…UUCACUGCAGACUUGACGAAGCUG
Outline: as §1

biotinyl-Val-oxazolone = test: self-aminoacylation, catalytic enhancement (BVO) (fold over background); higher = more active; k-Seq, kA / k0A0; sequences stand for … in GGGAAUGGAUCCACAUCUACGAAUUC…UUCACUGCAGACUUGACGAAGCUG
Outline: as §1

biotinyl-Trp-oxazolone = test: self-aminoacylation, catalytic enhancement (BWO) (fold over background); higher = more active; k-Seq, kA / k0A0; sequences stand for … in GGGAAUGGAUCCACAUCUACGAAUUC…UUCACUGCAGACUUGACGAAGCUG
Outline: as §1

biotinyl-Leu-oxazolone = test: self-aminoacylation, catalytic enhancement (BLO) (fold over background); higher = more active; k-Seq, kA / k0A0; sequences stand for … in GGGAAUGGAUCCACAUCUACGAAUUC…UUCACUGCAGACUUGACGAAGCUG
Outline: as §1

Sequence | self-aminoacylation (biotinyl-Ile-oxazolone) | self-aminoacylation (biotinyl-Phe-oxazolone) | self-aminoacylation (biotinyl-Met-oxazolone) | self-aminoacylation (biotinyl-Val-oxazolone) | self-aminoacylation (biotinyl-Trp-oxazolone) | self-aminoacylation (biotinyl-Leu-oxazolone)
CUACUCCCAACAAUCGGUCUG [Fam1A.1 aminoacylation ribozyme variant] | 0.832 | 0.703 | 0.749 | 1.09 | 0.951 | 0.777
CUACUGCAAUCAAUCGGUCUG [Fam1A.1 aminoacylation ribozyme variant] | 0.763 | 2.9 | 0.743 | 0.883 | 0.766 | 0.7
CUACUUAAAACAAUCGGUCGG [Fam1A.1 aminoacylation ribozyme variant] | 0.878 | 0.727 | 0.786 | 0.74 | 0.59 | 0.857
CUACUUCAAACAAACGGUAUG [Fam1A.1 aminoacylation ribozyme variant] | 0.599 | 0.892 | 0.61 | 0.723 | 0.462 | 0.638
CUACUUCAAACAAACGGUCCG [Fam1A.1 aminoacylation ribozyme variant] | 0.899 | 0.523 | 1.28 | 0.805 | 0.61 | 1.12
CUACUUCAAACAACCGGUCUU [Fam1A.1 aminoacylation ribozyme variant] | 1.32 | 0.875 | 0.686 | 0.899 | 1.05 | 0.871
CUACUUCAAACAAGCGGUAUG [Fam1A.1 aminoacylation ribozyme variant] | 0.894 | 0.975 | 1.15 | 0.826 | 0.632 | 0.715
CUACUUCAAACAAGCGGUCCG [Fam1A.1 aminoacylation ribozyme variant] | 0.989 | 0.628 | 0.903 | 1.07 | 0.572 | 1.24
CUACUUCAAACAAUAAGUCUG [Fam1A.1 aminoacylation ribozyme variant] | 0.716 | 0.951 | 0.579 | 0.755 | 0.579 | 0.695
CUACUUCAAACAAUACGUCUG [Fam1A.1 aminoacylation ribozyme variant] | 0.792 | 0.917 | 0.677 | 0.886 | 0.574 | 0.648
CUACUUCAAACAAUCCGACUG [Fam1A.1 aminoacylation ribozyme variant] | 0.626 | 1.02 | 0.442 | 0.645 | 0.415 | 0.419
CUACUUCAAACAAUCGGCAUG [Fam1A.1 aminoacylation ribozyme variant] | 0.965 | 1.1 | 0.773 | 1.06 | 1.15 | 0.956
CUACUUCAAACAAUCGGUCCA [Fam1A.1 aminoacylation ribozyme variant] | 0.753 | 1.79 | 0.654 | 0.757 | 0.907 | 0.633
CUACUUCAAACAAUCGGUUGG [Fam1A.1 aminoacylation ribozyme variant] | 0.843 | 3.55 | 0.619 | 0.812 | 1.82 | 0.788
CUACUUCAAACAAUCGUGCUG [Fam1A.1 aminoacylation ribozyme variant] | 0.645 | 1.07 | 0.666 | 0.6 | 0.748 | 0.753
CUACUUCAAACAAUCUGUCCG [Fam1A.1 aminoacylation ribozyme variant] | 0.891 | 0.923 | 0.8 | 0.814 | 0.656 | 0.729
CUACUUCAAACAAUCUGUCUA [Fam1A.1 aminoacylation ribozyme variant] | 0.853 | 0.811 | 0.641 | 0.801 | 0.525 | 0.598
CUACUUCAAACAAUGGAUCUG [Fam1A.1 aminoacylation ribozyme variant] | 0.876 | 0.857 | 0.715 | 0.881 | 0.398 | 0.736
CUACUUCAAACAAUGGGACUG [Fam1A.1 aminoacylation ribozyme variant] | 0.759 | 0.509 | 0.691 | 0.592 | 0.485 | 0.493
CUACUUCAAACAAUUGGUAUG [Fam1A.1 aminoacylation ribozyme variant] | 0.888 | 0.89 | 0.899 | 0.778 | 0.533 | 0.755
CUACUUCAAACAAUUUGUCUG [Fam1A.1 aminoacylation ribozyme variant] | 0.886 | 0.817 | 0.944 | 0.847 | 0.603 | 0.681
CUACUUCAAACACUUGGUCUG [Fam1A.1 aminoacylation ribozyme variant] | 0.712 | 0.487 | 0.633 | 0.686 | 0.555 | 0.713
CUACUUCAAACAGUCGGACUG [Fam1A.1 aminoacylation ribozyme variant] | 0.853 | 0.77 | 0.697 | 0.826 | 0.682 | 0.564
CUACUUCAAACAUCCGGUCUG [Fam1A.1 aminoacylation ribozyme variant] | 1.23 | 1.62 | 1.16 | 1.07 | 0.795 | 1.37
CUACUUCAAACAUUCGGACUG [Fam1A.1 aminoacylation ribozyme variant] | 1.08 | 0.626 | 0.972 | 1.22 | 1.23 | 0.973
